Taken from: PubChem BioAssay AID1259424 (University of Nebraska Medical Center, 2018)
Shown is one part, drawn at random, of about 14,000 reagents. 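Higher correlation or smaller distance means closer resemblance to KSR1 loss; control wells, including KSR1 knockdowns, recur on many plates.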 Not given: the time to read-out.

- Screen: 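Rank knockdowns across the genome by resemblance to the KSR1 depletion profile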 (primary screen)
- Cells: human HCT116 colon cancer cells
- Reagents: siRNA pool against human genes, 50 nM
- Read-out: 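Six signature mRNAs by branched-DNA multiplex assay, scaled to two housekeeping genes and non-targeting median, log2; matched to mean KSR1 knockdown profile by Pearson correlation and euclidean distance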
- Direction: mean correlation with KSR1 profile and KSR1 correlation: higher = expression change more like KSR1 knockdown; mean distance from KSR1 profile: higher = expression change less like KSR1 knockdown

| Target gene | mean correlation with KSR1 profile | mean distance from KSR1 profile | KSR1 correlation, replicate 1 | KSR1 correlation, replicate 2 | KSR1 correlation, replicate 3 |
| --- | --- | --- | --- | --- | --- |
| DPP6 | -0.268 | 2.43 | -0.499 | -0.128 | -0.248 |
| PCDHA5 | 0.46 | 1.3 | 0.236 | 0.369 | 0.312 |
| INTS12 | -0.457 | 3.89 | -0.399 | -0.307 | -0.426 |
| AR | -0.0396 | 2.06 | 0.0924 | -0.0515 | -0.398 |
| MCM4 | 0.238 | 1.58 | 0.236 | 0.235 | 0.11 |
| ESRRA | 0.0879 | 2.14 | 0.138 | 0.311 | -0.259 |
| TRAPPC2L | -0.192 | 3.49 | -0.0988 | -0.259 | -0.177 |
| SNCB | -0.0143 | 1.54 | 0.183 | -0.0843 | -0.151 |
| DMTF1 | -0.815 | 3.21 | -0.674 | -0.859 | -0.383 |
| NTMT1 | 0.406 | 0.672 | 0.456 | 0.369 | 0.144 |
| LCMT1 | 0.127 | 2.13 | 0.037 | 0.234 | 0.0816 |
| NOVA1 | 0.582 | 0.985 | 0.626 | 0.346 | 0.282 |
| PDE6G | -0.701 | 2.25 | -0.573 | -0.52 | -0.875 |

The list goes on, starting with the last 2 of the part before.
| Target gene | mean correlation with KSR1 profile | mean distance from KSR1 profile | KSR1 correlation, replicate 1 | KSR1 correlation, replicate 2 | KSR1 correlation, replicate 3 |
| --- | --- | --- | --- | --- | --- |
| NOVA1 | 0.582 | 0.985 | 0.626 | 0.346 | 0.282 |
| PDE6G | -0.701 | 2.25 | -0.573 | -0.52 | -0.875 |
| RANBP6 | 0.14 | 1.83 | -0.00162 | 0.0802 | 0.294 |
| NMRK1 | -0.778 | 3.64 | -0.836 | -0.85 | -0.459 |
| TAS2R7 | 0.569 | 2.16 | 0.558 | 0.696 | 0.669 |
| CEBPB | -0.53 | 1.86 | -0.189 | -0.356 | -0.566 |
| CST8 | -0.373 | 1.78 | -0.275 | -0.462 | -0.508 |
| NCK2 | -0.335 | 2.97 | -0.264 | -0.379 | -0.407 |
| HSPG2 | 0.349 | 1.59 | 0.483 | 0.241 | 0.298 |
| MEST | 0.703 | 0.945 | 0.727 | 0.592 | 0.725 |
| PGC | -0.581 | 3.02 | -0.463 | -0.529 | -0.514 |
| CDC7 | 0.39 | 1.53 | 0.763 | 0.0563 | -0.348 |
| FAM178B | 0.621 | 1.5 | 0.443 | 0.792 | 0.593 |
| PVALB | -0.258 | 2.6 | -0.149 | -0.303 | -0.324 |
| ZDHHC20 | -0.331 | 2.58 | -0.307 | -0.423 | -0.417 |
| DOLPP1 | -0.163 | 2.64 | -0.0682 | -0.31 | -0.283 |
| LMAN1 | 0.245 | 1.99 | 0.309 | 0.27 | 0.129 |
| FMO2 | -0.00562 | 2.2 | -0.174 | -0.255 | 0.25 |
| CHCHD7 | 0.222 | 2.66 | 0.281 | 0.0481 | 0.0539 |
| PEF1 | -0.258 | 2.75 | 0.152 | -0.391 | -0.659 |
| UGT2B28 | -0.428 | 2.08 | -0.485 | -0.453 | -0.201 |
| TMCO6 | -0.835 | 2.82 | -0.668 | -0.776 | -0.771 |
| SGSM3 | 0.448 | 0.856 | 0.0358 | 0.277 | 0.18 |
